No constants are given. Whether binding was seen depends on the method and setting. For some assays here: Binding seen in cells or lysates may run through a third protein. Some binding calls cover weakened binding; strength is not graded here.
Experiments:
[1] = target: eIF4E in C-PAE cell lysate (bovine) (UniProt Q9N0T5); test: 7-methyl-GTP-Sepharose pull-down from C-PAE lysates after T3 or Tumstatin-45-132 treatment, immunoblot
[2] = target: integrin β1 subunit on HUVEC cells (human) (UniProt P05556); test: cell attachment assay (HUVEC or C-PAE) with blocking antibodies

Protein sequences, listed by entry. Tags and fused reporters are not part of them. Lines headed by an entry give the natural chain unless they say otherwise; changes in a name come on top. Residues count along the entry.
UniProt Q9N0T5, residues 2-217: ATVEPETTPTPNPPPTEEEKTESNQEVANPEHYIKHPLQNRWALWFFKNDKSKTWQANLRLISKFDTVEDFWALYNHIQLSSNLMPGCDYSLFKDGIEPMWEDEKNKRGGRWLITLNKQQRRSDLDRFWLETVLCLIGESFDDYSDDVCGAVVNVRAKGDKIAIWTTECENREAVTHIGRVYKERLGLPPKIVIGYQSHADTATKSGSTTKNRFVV
UniProt P05556: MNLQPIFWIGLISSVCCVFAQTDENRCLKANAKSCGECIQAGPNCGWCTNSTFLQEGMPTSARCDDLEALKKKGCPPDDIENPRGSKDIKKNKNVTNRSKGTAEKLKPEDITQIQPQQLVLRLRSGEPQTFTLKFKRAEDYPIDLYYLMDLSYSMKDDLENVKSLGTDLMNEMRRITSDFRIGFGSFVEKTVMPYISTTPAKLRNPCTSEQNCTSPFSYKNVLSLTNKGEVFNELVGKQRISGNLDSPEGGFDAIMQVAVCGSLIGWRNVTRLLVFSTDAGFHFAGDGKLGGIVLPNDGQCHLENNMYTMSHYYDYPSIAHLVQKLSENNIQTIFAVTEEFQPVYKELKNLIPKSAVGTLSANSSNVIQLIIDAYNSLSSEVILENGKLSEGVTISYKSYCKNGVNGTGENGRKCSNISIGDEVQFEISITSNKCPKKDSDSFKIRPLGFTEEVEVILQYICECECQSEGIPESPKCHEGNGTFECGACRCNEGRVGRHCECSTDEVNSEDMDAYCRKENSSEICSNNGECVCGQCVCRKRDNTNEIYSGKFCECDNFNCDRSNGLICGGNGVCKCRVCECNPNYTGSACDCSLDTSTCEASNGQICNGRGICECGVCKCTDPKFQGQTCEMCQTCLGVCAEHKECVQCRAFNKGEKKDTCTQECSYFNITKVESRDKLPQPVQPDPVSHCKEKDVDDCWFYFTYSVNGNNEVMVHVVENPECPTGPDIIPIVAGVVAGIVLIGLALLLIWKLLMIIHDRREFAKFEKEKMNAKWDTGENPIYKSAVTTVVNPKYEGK
UniProt Q0P5A7, residues 2-118: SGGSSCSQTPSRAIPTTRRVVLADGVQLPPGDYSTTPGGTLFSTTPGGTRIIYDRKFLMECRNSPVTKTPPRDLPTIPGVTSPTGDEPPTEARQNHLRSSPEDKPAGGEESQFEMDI
UniProt Q01955: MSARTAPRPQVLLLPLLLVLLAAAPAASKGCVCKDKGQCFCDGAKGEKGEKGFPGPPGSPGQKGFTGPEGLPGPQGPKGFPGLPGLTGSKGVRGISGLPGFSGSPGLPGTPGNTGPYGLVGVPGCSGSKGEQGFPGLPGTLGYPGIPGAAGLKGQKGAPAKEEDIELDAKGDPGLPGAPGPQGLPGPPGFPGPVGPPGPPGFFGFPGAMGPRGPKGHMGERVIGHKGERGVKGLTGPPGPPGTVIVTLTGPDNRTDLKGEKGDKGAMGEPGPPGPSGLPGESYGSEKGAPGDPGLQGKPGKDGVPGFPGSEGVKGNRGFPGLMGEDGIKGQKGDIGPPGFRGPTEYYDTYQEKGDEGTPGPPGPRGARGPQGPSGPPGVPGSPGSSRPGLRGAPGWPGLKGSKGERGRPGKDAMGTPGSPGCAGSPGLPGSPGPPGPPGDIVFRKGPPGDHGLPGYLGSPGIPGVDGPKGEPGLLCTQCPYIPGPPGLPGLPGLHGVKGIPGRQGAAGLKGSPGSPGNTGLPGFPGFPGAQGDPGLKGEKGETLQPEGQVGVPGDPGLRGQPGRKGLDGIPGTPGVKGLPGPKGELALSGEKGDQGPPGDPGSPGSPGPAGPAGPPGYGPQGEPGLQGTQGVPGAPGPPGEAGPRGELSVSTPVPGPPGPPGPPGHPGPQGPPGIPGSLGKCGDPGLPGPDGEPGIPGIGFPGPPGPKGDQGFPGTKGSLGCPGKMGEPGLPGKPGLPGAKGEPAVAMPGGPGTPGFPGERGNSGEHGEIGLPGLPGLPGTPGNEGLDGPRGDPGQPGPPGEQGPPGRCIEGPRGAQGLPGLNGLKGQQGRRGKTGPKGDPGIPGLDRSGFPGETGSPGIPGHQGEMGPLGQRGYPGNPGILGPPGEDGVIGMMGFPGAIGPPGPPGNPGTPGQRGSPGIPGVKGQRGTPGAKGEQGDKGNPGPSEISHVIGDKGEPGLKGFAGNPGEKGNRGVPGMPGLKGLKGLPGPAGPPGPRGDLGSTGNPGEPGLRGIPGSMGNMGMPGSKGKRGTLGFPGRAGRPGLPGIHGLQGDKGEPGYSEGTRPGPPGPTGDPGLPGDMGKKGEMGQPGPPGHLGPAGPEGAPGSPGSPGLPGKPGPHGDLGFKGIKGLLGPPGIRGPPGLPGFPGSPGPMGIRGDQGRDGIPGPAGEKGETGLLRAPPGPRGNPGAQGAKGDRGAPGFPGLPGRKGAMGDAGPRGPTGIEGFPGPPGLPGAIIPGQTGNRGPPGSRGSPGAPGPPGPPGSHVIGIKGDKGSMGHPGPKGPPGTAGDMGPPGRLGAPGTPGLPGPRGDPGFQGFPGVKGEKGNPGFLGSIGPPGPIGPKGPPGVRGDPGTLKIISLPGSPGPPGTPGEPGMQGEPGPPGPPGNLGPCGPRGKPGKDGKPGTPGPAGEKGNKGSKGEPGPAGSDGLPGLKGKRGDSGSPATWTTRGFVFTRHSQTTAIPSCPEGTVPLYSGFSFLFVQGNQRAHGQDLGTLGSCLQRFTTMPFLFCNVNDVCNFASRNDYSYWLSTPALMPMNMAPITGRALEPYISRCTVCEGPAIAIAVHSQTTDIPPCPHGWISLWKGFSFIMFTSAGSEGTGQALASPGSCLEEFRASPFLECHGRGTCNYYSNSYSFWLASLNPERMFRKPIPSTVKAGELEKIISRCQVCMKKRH

| Substance | binding [1] | binding [2] |
| --- | --- | --- |
| 4E-BP1 in C-PAE cell lysate (from UniProt Q0P5A7 2-118) | binds |  |
| Tumstatin-45-132 (E. coli-expressed) (from UniProt Q01955 1471-1558) (ligand) |  | binds |

Reference: US20030144481A1
